## Primary screen of a compound library

The chains behind the UniProt entries cited, without tags or fusion partners. Residues count along the entry.
UniProt Q8IDJ8, 1-583: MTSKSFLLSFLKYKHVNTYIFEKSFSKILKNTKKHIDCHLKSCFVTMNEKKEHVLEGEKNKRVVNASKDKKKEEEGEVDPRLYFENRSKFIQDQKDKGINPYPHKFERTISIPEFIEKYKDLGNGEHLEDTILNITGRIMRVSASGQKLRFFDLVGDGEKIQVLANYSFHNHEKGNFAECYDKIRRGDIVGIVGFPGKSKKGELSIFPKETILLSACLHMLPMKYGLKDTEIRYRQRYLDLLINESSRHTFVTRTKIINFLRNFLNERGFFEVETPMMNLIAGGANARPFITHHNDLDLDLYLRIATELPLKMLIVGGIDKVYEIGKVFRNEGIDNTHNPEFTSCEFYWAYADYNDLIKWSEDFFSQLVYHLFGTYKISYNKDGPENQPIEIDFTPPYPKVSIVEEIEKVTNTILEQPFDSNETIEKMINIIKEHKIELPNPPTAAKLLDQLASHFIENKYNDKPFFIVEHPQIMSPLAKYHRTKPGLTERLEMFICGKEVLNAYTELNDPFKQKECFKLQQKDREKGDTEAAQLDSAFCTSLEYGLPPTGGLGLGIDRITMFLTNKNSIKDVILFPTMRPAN
UniProt P9WFT3, whole entry: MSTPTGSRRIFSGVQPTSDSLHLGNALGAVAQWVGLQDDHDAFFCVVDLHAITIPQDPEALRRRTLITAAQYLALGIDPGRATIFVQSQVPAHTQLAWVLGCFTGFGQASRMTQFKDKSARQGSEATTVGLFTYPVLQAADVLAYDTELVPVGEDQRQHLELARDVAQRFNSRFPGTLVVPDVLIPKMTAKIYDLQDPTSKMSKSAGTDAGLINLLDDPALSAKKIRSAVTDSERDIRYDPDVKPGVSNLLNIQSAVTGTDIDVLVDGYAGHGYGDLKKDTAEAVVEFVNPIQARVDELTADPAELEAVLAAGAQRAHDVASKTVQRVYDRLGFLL
UniProt P9WPC5, whole entry: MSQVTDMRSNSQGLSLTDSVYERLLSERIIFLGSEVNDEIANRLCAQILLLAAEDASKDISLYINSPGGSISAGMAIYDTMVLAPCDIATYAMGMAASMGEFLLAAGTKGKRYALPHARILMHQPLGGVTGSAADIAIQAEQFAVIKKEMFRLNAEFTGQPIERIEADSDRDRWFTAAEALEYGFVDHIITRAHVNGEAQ
UniProt P9WPC3, whole entry partner: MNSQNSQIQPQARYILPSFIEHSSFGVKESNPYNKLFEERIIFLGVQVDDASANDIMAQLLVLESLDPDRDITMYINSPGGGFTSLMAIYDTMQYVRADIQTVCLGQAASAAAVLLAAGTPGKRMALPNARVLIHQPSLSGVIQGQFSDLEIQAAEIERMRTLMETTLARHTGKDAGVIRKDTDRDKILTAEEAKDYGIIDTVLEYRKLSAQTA
UniProt Q4DA54, 1-478: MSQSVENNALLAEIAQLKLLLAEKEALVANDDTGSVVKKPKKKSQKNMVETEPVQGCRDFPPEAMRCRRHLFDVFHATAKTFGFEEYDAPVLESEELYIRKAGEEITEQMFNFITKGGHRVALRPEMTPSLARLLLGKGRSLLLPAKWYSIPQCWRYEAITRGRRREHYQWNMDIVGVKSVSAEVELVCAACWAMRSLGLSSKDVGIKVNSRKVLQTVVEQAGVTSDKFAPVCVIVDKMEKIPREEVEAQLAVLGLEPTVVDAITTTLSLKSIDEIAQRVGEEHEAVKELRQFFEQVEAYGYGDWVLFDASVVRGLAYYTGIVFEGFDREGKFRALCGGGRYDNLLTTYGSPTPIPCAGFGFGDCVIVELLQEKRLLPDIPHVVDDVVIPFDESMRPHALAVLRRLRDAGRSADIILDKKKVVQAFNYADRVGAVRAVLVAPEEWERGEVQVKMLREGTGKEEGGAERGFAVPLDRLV

A: 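Enzyme assay of the cytosolic lysyl-tRNA synthetase in 384-well plates, read by luminescence. Target: Lysine-tRNA ligase, Plasmodium falciparum 3D7 (UniProt Q8IDJ8). Compounds at 30 µM. Higher reads as stronger inhibition, judged from the few compounds that gave an IC50. Of about 69,000 compounds tested this way, about 49 (0.071%) reached 50% or more in at least one test.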
B: 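Enzyme assay of tryptophanyl-tRNA synthetase; the read-out is not stated. Target: Tryptophan-tRNA ligase, Mycobacterium tuberculosis (UniProt P9WFT3). Tested at 10 µM. Higher most likely means stronger inhibition; the record gives no direction and few retests gave an IC50. Of about 65,000 compounds tested this way, about 64 (0.098%) reached 50% or more in at least one test.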
C: 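ClpP1P2, Mycobacterium tuberculosis (UniProt P9WPC5 and UniProt P9WPC3). Protease assay of ClpP1P2, read by the AMC dye that it sets free. Compounds at 50 µM. Higher reads as stronger inhibition, judged from the few compounds that gave an IC50. Most other retested compounds had strongly negative values. Size under these conditions: about 69,000 compounds, about 10 of them at 50% or above in at least one test.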
D: 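Histidine-tRNA ligase, Trypanosoma cruzi CL Brener (UniProt Q4DA54). Enzyme assay of histidyl-tRNA synthetase; the read-out is not stated. Tested at 30 µM. Higher reads as stronger inhibition (inferred: compounds with an IC50 in retests scored well above the rest). About 69,000 compounds were tested under these conditions; 0.045% (about 31) showed 50% or more at least once.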

The filed quantity is “Percent Effect” (%). The record does not define 0% and 100%; most values in the screen are far below 50% and negative numbers occur (in some assays of this library far below -100). This is an unselected part of the compounds tested. A dash means the value is not listed here; it may have been measured.

For OC1(CN2CCCC2)COCCN(c2nnc(-c3ccccc3)s2)C1 (stereo not shown) the result was A: -4.497%; B: -0.6721%; C: -13.69%; D: 15.29%. COc1ccc2nc(C[C@@H]3C[C@@H](C(C)C)[C@H](CN(C)C)C=C3C)[nH]c2n1 read A: 3.559%; B: 2.334%; C: -11.81%; D: 13.86%. Result for Cc1cccc(CN(Cn2nc(C)c3c(C)onc3c2=O)C2CC2)c1 was A: 6.86%; B: 3.226%; C: 10.04%; D: 5.195%. Cc1ccc(OCCNc2cccc(C(=O)N3CCOCC3)c2)cc1 read A: -1.508%; B: 1.485%; C: -7.907%; D: -3.139%. For Cc1ccc(C(C(=O)NCCc2nc(C)cc(=O)[nH]2)N(C)C)cc1 (stereo not shown) the result was A: -1.353%; B: -0.6734%; C: -13.48%; D: 7.143%. CN(C)c1ncc2c(n1)N(C)CCN(CC1CC1)C2=O gave A: 4.191%; C: -5.998%; D: 4.52%.

CNc1cccc(C2CN(C(=O)CNS(C)(=O)=O)CCO2)n1 (stereo not shown) gave A: 0.8717%; B: 7.405%; C: 14.94%; D: 5.385%. Cc1nn(CCNS(=O)(=O)c2ccccc2)c(C)c1Cl read A: 1.018%; B: 0.9889%; C: 0.4767%; D: 9.697%. Result for CN(Cc1ccco1)[C@@H]1CN(Cc2ccncc2)C[C@@H]2CCCO[C@@H]21 was A: 11.37%; B: 1.395%; C: 6.458%; D: 14.05%. CCC(C)N1Cc2c(C(=O)N3CCCC3)nn(C)c2C1 (stereo not shown) gave A: 6.183%; B: 1.647%; C: -5.553%; D: -15.95%. Result for CCN1CCN(C(=O)NCc2cccnc2-n2cccn2)CC1 was A: -1.576%; B: 15.55%; C: -2.151%; D: 3.39%. Result for CC(NC(=O)N1CCC2(C1)OCCO2)c1cccc(Cl)c1 (stereo not shown) was A: 0.5908%; B: 0.3027%; C: -6.257%; D: 5.732%.

With Cc1cccc(C(=O)N2CCn3cc(CNC(=O)CC4CC4)nc3C2)n1 the screen gave A: 0.418%; B: 3.21%; C: 1.443%; D: 5.911%. Result for Cc1cc(C)c2nc(CN3CCC(CN)CC3)cc(O)c2c1 was A: 5.259%; B: -1.701%; C: 3.675%; D: 11.22%. For CC(=O)NCC(=O)NC1CCc2nccn2C1 (stereo not shown) the result was A: 6.908%; B: 3.693%; C: -1.981%; D: 8.333%. For CC(=O)NC1CCCN(C(=O)NCc2cccnc2-n2cccn2)C1 (stereo not shown) the result was A: 4.079%; B: -5.152%; C: -7.295%; D: 1.132%. Result for N#Cc1cccnc1N1CCN(C(=O)c2cccs2)CC1 was A: 0.8933%; B: -0.5146%; C: -3.043%; D: 7.778%. With Cc1ccccc1OC1CCN(C(=O)c2c[nH]c(=O)[nH]c2=O)CC1 the screen gave A: 0.9854%; B: -6.808%; C: 2.46%; D: 6.358%.

CCn1cnnc1CNC(=O)N(C)C(C)c1cccs1 (stereo not shown) read A: 1.547%; B: 4.543%; C: -21.69%; D: 4.035%. With Cn1cc(CN2CCC(c3cc(CCO)[nH]n3)C2)cn1 (stereo not shown) the screen gave A: 0.4413%; B: -4.688%; C: -6.729%; D: 3.448%. Cc1cccc(C2CC(=O)Nc3c2c(=O)[nH]n3C(C)C)c1 (stereo not shown) read A: 5.137%; B: -3.461%; C: -14.27%; D: -3.636%. O=C(NCc1ccccn1)c1cnc(C2CCCN2)cn1 (stereo not shown) gave A: -0.6407%; B: 6.323%; C: -1.544%; D: 5.639%. CC(=O)N1CCC(c2nc3ccc(NC4CCC4)cn3n2)CC1 read A: 1.695%; C: -5.031%; D: 2.513%. For CC(C)(C)CCCC(=O)NS(=O)(=O)CC1CC1 the result was A: 0.707%; B: 0%; C: -11.59%; D: 4.372%.

COc1ccc(OCC2CCCN(c3nc(CO)cs3)C2)cc1 (stereo not shown) gave A: 2.534%; B: -0.2581%; C: -8.819%; D: 12.12%. Result for CO[C@@H]1CCN(Cc2ccoc2)[C@H]1Cc1ccccc1 was A: 3.664%; C: -6.568%; D: 10.61%. Result for Cc1csc(CN2CC[C@H]3C[C@H](c4ccncn4)O[C@@H]3C2)n1 was A: 2.448%; B: -4.351%; C: -11.05%; D: 6.557%.

Once more, the final 2:

SMILES,A,B,C,D
CO[C@@H]1CCN(Cc2ccoc2)[C@H]1Cc1ccccc1,3.664,-,-6.568,10.61
Cc1csc(CN2CC[C@H]3C[C@H](c4ccncn4)O[C@@H]3C2)n1,2.448,-4.351,-11.05,6.557

Measurements from “University of Dundee, Small-Polar-MMV Screening Library” (2021), ChEMBL document CHEMBL3988442.